Source: the supplement of paper PMC12823440, “Inhibitors supercharge kinase turnover through native proteolytic circuits” (Nature, 2025)
Where a name gives a salt, the structure may show the parent alone. This is one part of the list. The calls rarely recur for the same compound in another form.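 Kinases were expressed as nanoluciferase fusions in K562 cells and luminescence was read every 4 h between 2 and 18 h as percent of control, DMSO set to 100% and a positive control to 0%. A time point counts as decreased when the signal drops significantly (2 sigma). The hit call is the authors' own, does not follow from the count of time points alone, and its rule is not shown.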

Chains of the proteins cited; added tags and fusions are not shown. Lines headed by an entry give the natural chain unless they say otherwise; changes in a name come on top.
UniProt Q16288, whole entry, looked up: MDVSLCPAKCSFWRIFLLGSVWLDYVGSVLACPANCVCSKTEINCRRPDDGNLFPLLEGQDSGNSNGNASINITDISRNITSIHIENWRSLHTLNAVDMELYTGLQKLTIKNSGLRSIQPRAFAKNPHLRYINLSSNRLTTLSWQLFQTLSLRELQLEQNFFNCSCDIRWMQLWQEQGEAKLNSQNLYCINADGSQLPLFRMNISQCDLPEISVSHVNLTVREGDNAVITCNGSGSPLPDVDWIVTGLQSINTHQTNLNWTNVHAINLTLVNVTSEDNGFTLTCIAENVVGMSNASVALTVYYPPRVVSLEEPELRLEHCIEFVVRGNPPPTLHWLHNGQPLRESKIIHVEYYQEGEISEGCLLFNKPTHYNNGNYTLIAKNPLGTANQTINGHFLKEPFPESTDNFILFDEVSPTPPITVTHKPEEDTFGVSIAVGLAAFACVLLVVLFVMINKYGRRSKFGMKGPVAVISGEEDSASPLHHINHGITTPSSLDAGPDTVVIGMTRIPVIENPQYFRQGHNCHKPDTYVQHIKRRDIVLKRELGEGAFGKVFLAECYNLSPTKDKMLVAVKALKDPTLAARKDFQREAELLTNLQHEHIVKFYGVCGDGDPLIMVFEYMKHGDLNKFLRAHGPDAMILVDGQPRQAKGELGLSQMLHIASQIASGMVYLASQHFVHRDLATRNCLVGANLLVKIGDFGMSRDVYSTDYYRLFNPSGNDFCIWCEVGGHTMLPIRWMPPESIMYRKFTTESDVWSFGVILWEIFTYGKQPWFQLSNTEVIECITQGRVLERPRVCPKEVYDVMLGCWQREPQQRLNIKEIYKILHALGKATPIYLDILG
UniProt O96013: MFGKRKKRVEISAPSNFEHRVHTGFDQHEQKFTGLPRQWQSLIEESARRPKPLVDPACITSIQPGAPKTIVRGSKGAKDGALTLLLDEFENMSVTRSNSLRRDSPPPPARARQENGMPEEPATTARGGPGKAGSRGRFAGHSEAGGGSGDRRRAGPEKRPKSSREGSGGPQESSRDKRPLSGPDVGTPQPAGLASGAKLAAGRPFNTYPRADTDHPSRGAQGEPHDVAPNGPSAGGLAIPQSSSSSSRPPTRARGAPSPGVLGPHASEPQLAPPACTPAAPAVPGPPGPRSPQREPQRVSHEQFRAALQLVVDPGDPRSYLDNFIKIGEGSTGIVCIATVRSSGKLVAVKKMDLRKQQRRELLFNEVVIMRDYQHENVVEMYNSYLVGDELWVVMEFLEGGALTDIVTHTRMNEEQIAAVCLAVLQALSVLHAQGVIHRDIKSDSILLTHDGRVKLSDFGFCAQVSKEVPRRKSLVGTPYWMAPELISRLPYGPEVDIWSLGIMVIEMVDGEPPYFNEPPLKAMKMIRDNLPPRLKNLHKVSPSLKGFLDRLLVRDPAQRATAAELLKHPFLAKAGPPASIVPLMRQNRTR
UniProt Q96KB5: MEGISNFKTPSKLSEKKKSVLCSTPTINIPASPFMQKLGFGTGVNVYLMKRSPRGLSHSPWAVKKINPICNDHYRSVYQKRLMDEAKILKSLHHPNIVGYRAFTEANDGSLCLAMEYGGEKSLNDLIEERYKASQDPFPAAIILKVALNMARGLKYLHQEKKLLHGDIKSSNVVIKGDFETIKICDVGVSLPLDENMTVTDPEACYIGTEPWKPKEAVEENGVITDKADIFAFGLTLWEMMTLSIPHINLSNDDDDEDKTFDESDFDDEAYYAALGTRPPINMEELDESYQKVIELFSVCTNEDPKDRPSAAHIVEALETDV
UniProt P09619, whole entry: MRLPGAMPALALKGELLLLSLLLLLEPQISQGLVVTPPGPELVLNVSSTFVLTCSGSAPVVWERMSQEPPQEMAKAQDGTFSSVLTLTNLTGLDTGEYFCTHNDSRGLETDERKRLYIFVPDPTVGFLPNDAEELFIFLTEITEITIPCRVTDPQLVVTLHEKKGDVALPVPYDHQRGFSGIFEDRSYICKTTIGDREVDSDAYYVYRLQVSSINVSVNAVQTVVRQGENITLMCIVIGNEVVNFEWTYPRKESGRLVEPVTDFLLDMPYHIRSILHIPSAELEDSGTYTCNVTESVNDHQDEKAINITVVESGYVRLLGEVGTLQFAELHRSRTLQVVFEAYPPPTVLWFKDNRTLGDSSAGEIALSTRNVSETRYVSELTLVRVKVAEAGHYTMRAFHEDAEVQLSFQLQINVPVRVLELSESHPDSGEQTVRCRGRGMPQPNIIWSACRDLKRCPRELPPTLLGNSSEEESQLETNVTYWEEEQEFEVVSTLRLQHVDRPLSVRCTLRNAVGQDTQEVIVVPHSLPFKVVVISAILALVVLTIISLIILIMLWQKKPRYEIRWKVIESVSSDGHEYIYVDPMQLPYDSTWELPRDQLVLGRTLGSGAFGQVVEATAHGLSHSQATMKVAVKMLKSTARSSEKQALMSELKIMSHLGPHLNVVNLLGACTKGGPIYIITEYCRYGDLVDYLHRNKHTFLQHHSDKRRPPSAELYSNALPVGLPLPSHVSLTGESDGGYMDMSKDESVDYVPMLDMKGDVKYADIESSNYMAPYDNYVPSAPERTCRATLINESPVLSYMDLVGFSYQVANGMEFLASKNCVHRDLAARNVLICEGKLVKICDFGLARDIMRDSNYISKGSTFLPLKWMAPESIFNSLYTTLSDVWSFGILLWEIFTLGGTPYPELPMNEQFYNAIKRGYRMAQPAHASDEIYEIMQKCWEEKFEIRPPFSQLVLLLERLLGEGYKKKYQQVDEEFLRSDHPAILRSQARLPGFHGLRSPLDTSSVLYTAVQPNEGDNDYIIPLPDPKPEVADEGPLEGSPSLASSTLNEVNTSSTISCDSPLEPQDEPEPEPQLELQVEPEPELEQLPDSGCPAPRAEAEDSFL
UniProt Q15118, whole entry, looked up: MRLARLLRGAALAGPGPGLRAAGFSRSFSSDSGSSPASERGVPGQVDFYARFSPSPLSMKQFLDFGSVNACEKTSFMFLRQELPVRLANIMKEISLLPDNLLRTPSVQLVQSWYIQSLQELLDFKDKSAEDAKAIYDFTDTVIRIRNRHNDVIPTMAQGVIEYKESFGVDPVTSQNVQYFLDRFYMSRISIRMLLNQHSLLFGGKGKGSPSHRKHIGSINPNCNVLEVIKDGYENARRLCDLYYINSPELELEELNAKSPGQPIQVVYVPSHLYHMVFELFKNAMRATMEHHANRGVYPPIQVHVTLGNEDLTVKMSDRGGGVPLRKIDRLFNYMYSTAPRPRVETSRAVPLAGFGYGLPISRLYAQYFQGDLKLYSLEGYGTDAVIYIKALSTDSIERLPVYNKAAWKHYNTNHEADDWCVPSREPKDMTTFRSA
UniProt O15530: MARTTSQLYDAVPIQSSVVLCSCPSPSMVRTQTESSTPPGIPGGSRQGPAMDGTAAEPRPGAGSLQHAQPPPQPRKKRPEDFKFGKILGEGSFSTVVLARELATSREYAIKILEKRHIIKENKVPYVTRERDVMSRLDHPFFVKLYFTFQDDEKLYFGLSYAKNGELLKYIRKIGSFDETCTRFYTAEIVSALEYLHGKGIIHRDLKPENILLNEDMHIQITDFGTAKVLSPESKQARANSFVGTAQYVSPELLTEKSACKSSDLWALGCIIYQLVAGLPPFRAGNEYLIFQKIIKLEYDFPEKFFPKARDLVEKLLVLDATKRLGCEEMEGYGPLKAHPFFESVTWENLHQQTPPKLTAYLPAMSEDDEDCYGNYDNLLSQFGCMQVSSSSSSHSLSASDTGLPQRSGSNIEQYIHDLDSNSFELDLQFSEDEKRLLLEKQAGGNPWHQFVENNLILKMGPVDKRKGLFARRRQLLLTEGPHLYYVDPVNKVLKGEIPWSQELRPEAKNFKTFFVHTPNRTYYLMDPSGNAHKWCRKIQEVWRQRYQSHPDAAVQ
UniProt P42356, whole entry, looked up: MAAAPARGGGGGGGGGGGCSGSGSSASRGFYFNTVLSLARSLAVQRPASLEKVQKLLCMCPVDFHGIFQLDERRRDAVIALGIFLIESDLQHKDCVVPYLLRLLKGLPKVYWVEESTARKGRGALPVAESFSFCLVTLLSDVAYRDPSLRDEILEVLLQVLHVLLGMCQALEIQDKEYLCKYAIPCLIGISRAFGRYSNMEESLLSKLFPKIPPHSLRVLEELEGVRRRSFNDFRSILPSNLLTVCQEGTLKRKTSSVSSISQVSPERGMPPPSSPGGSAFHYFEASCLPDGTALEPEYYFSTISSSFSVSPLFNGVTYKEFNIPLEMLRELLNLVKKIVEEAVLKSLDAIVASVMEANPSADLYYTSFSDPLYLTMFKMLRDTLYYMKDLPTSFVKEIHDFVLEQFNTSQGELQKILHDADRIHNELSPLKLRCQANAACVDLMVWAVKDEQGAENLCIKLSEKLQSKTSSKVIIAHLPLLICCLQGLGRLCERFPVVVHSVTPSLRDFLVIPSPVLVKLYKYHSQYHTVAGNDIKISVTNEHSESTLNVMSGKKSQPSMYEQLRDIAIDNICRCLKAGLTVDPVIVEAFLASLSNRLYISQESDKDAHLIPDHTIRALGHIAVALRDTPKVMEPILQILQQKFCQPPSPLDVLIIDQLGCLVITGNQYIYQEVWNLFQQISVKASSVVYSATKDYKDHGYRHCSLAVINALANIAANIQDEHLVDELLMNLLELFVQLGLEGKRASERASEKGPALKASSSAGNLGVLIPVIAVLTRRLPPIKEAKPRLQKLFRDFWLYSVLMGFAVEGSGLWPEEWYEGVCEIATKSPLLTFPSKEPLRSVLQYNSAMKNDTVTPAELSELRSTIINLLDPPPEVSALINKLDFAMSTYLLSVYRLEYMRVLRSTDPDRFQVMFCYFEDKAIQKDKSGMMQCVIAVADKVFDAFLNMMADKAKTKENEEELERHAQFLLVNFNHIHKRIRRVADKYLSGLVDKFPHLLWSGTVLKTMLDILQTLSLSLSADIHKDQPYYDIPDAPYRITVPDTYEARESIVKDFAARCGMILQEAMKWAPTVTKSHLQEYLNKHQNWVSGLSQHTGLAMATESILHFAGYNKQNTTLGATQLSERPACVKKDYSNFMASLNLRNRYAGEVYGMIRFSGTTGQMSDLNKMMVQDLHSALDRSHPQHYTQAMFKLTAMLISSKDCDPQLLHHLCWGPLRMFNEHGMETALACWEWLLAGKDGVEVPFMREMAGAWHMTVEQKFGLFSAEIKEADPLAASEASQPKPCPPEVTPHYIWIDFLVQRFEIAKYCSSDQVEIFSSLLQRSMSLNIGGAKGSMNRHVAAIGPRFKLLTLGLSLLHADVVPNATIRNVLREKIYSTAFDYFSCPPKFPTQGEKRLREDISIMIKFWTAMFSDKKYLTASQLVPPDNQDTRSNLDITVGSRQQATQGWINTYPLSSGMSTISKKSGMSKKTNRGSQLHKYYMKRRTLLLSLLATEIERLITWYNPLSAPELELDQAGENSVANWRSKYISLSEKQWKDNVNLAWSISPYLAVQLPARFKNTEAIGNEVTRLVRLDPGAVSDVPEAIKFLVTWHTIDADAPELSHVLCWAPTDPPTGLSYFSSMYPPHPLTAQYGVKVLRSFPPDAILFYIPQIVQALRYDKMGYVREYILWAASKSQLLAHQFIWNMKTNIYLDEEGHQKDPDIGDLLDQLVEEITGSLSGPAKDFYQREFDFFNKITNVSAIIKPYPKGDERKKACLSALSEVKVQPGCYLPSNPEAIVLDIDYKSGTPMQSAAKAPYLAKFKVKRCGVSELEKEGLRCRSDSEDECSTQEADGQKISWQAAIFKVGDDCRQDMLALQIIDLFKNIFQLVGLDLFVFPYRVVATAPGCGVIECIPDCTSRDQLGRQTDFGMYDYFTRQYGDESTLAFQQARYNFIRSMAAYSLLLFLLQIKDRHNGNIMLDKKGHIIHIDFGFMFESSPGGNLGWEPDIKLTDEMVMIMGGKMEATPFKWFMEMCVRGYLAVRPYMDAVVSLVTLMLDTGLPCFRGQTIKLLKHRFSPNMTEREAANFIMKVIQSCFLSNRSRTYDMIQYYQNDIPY
UniProt Q13131: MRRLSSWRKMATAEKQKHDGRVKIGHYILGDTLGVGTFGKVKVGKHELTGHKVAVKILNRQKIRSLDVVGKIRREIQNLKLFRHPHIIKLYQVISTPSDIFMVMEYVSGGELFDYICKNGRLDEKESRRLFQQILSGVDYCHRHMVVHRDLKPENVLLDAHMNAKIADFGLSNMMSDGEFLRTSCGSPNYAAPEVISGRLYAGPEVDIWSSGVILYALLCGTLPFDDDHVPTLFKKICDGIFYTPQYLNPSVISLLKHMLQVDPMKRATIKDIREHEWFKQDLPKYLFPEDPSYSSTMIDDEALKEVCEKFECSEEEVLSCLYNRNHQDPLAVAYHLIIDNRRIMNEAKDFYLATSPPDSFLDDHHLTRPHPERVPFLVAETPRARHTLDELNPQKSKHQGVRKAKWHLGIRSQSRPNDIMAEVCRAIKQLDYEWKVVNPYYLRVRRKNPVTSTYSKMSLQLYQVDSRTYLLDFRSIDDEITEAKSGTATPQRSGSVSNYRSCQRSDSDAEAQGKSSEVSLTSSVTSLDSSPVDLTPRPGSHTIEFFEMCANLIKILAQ

Legend:
Test in all cases: number of time points (of 5) at which kinase-Nluc abundance scored as decreased, DMSO-normalised (count); higher = more persistent destabilization
Details in all cases: K562; 2-18 h
[1] = molecular target: NTRK3 (UniProt Q16288)
[2] = molecular target: PAK4 (UniProt O96013)
[3] = molecular target: PBK (UniProt Q96KB5)
[4] = molecular target: PDGFRB (UniProt P09619)
[5] = molecular target: PDK1 (UniProt Q15118)
[6] = molecular target: PDPK1 (UniProt O15530)
[7] = molecular target: PIK4CA (UniProt P42356)
[8] = molecular target: PIK4CB (UniProt Q9UBF8)
[9] = molecular target: PLK1 (UniProt P53350)
[10] = molecular target: PRKAA1 (UniProt Q13131)

Measured: number of time points

COc1c(OCCCN2CCOCC2)ccc2c3n(c(=NC(=O)c4cnc(N)nc4)nc12)CCN3 [Copanlisib (dihydrochloride)] (10 µM)
4: [6] | [7]
3: [1] | [8] | [9]
0: [2] | [3] | [4] | [5]
2: [10]

O=C(Nc1nc2cccc(-c3ccc(CN4CCS(=O)(=O)CC4)cc3)n2n1)C1CC1 [Filgotinib] (2.5 µM)
0: [1] | [2] | [3] | [4] | [5] | [6] | [7] | [8] | [9] | [10]

Cc1nc(Nc2ncc(C(=O)Nc3c(C)cccc3Cl)s2)cc(N2CCN(C(=O)CCCCCCC(=O)N[C@H](C(=O)N3C[C@H](O)C[C@H]3C(=O)NCc3ccc(-c4scnc4C)cc3)C(C)(C)C)CC2)n1 (2.5 µM)
1: [2]
3: [1] | [4] | [6] | [7]
2: [8] | [9] | [10]
0: [3] | [5]

CC(C)(O)c1cc(Nc2cc(Oc3cn(C4CC4)nc3C3CCOCC3)ccn2)ccn1 (10 µM)
0: [1] | [2] | [3] | [4] | [5] | [6] | [7] | [8] | [9] | [10]

O=C1NC(=O)C(c2ccccc2[N+](=O)[O-])=C1Nc1ccc(O)c(Cl)c1 (10 µM)
0: [1] | [2] | [3] | [4] | [5] | [6] | [7] | [8] | [9] | [10]

C[C@@H]1CN(Cc2cn[nH]c2-c2ccc(C#N)cc2)CCN1c1ccc(C(F)(F)F)cn1 (2.5 µM)
0: [1] | [2] | [3] | [4] | [5] | [6] | [7] | [8] | [9] | [10]

Oc1ccc2ccccc2c1SSc1c(O)ccc2ccccc12 (10 µM)
0: [1] | [2] | [3] | [4] | [5] | [6] | [7] | [8] | [9] | [10]

O=C(CC(c1ccccc1)C(C(=O)O)C(=O)O)c1ccc(C(F)(F)F)cc1 (stereo not given) (10 µM)
0: [1] | [2] | [3] | [4] | [5] | [6] | [7] | [8] | [9] | [10]

COc1cc(-c2cnc(N)c(-c3ccc(NC(=O)c4cn(CC5CCOCC5)cc(-c5ccc(C)cn5)c4=O)cc3F)c2)ccc1OC[C@H]1COCCO1 [DS-1205b (free base)] (10 µM)
0: [1] | [2] | [3] | [4] | [5] | [6] | [7] | [8] | [9] | [10]

CC(C)=C/C=C1\O[C@@H]2CC(C)=CC(=O)[C@@H]2[C@]1(C)O [Bisabolangelone] (10 µM)
0: [1] | [2] | [3] | [4] | [5] | [6] | [7] | [8] | [9] | [10]

CC(=O)Nc1nc(C)c(-c2ccc(Cl)c(S(=O)(=O)NCCO)c2)s1 (10 µM)
0: [1] | [2] | [3] | [4] | [5] | [6] | [7] | [8] | [9] | [10]

COc1ccc2c(c1)C[C@H](C(=O)Nc1ccc(-c3cn[nH]c3)cc1OCCN(C)C)CO2 [Chroman 1] (10 µM)
0: [1] | [2] | [3] | [4] | [5] | [6] | [7] | [8] | [9] | [10]

Cc1ccc(CNC(=O)N2CCC[C@]3(CCN(Cc4ccc(Cl)c(Cl)c4)C3)C2)cc1 (10 µM)
0: [1] | [2] | [3] | [4] | [5] | [6] | [7] | [8] | [9] | [10]

C[C@@H]1O[C@@H](O[C@H]2[C@H](OC(=O)[C@]34CCC(C)(C)C[C@H]3C3=CC[C@@H]5[C@@]6(C)C[C@H](O)[C@H](O[C@@H]7O[C@H](CO)[C@@H](O)[C@H](O)[C@H]7O)C(CO)(CO)[C@@H]6CC[C@@]5(C)[C@]3(C)C[C@H]4O)OC[C@H](O)[C@@H]2O)[C@H](O)[C@H](O)[C@H]1O[C@@H]1OC[C@@H](O)[C@H](O[C@@H]2OC[C@](O)(CO)[C@H]2O)[C@H]1O [Platycodin D] (10 µM)
0: [1] | [2] | [3] | [4] | [5] | [6] | [7] | [8] | [9] | [10]

O=S(=O)(c1cccc2c(Cl)cccc12)N1CCCNCC1 (10 µM)
0: [1] | [2] | [3] | [4] | [5] | [6] | [7] | [8] | [9] | [10]

C1=N/C2=N/c3ccc(OCCN4CCCC4)c(c3)COC/C=C/COCc3cccc(c3)C(=C1)N2 [Pacritinib] (2.5 µM)
0: [1] | [2] | [3] | [4] | [5] | [6] | [7] | [8] | [9] | [10]

Cn1cc(-c2ccc3ncc(Cc4ccc5ncccc5c4)n3n2)cn1 (10 µM)
0: [1] | [2] | [3] | [4] | [5] | [6] | [7] | [8] | [9] | [10]

O=C(Nc1nccs1)C(c1cc(F)ccc1O)N1Cc2ccccc2C1=O (stereo not given) (10 µM)
0: [1] | [2] | [3] | [4] | [5] | [6] | [7] | [8] | [9] | [10]

Cn1c(=O)c(Oc2ccc(F)cc2F)cc2cnc(NC(CCO)CCO)nc21 [Pamapimod] (10 µM)
0: [1] | [2] | [3] | [4] | [5] | [6] | [7] | [8] | [9] | [10]

COc1cc(/C=C/c2ccc(NC(=O)/C=C/c3cc(OC)c(OC)c(OC)c3)cc2)cc(OC)c1 (2.5 µM)
0: [1] | [2] | [3] | [4] | [5] | [6] | [7] | [8] | [9] | [10]

CC(=O)Nc1nc(C)c(-c2cc3c(c(S(C)(=O)=O)c2)C(=O)N([C@@H](C)C2CC2)C3)s1 (2.5 µM)
0: [1] | [2] | [3] | [4] | [5] | [6] | [7] | [8] | [9] | [10]

CC(C)(C)c1ccc(C(=O)Nc2cn3cc(-n4ccnc4)ccc3n2)cc1 (10 µM)
0: [1] | [2] | [3] | [4] | [5] | [6] | [7] | [8] | [9] | [10]

CCCC[C@H](CO)Nc1nc(NC)ncc1OC [Interferon receptor inducer-1] (10 µM)
0: [1] | [2] | [3] | [4] | [5] | [6] | [7] | [8] | [9] | [10]

CN(C)C(=O)c1cc2cnc(Nc3ccc(NC(=O)C4(C(=O)Nc5ccc(F)cc5)CC4)cc3)nc2n1C1CCCC1 (2 µM)
0: [1] | [2] | [3] | [4] | [5] | [6] | [7] | [8] | [9] | [10]

O=C(c1ccc(NS(=O)(=O)c2cccc3cccnc23)cc1)N1CCN(CC2CC2)CC1 [Mitapivat] (10 µM)
0: [1] | [2] | [3] | [4] | [5] | [6] | [7] | [8] | [9] | [10]

Cc1ccc(-n2c(-c3ccc(O)cc3O)n[nH]c2=O)cc1 (10 µM)
3: [4]
4: [1] | [6] | [7]
1: [8]
0: [2] | [3] | [5] | [9] | [10]

CC(C)(O)c1cc2nc(-c3cnc(N)nc3)nc(N3CCOCC3)c2s1 (2.5 µM)
2: [1] | [7] | [8]
4: [6]
0: [2] | [3] | [4] | [5]
1: [10]
3: [9]

O=c1cc(-c2ccc(O)cc2)oc2cc(O)c(O)c(O)c12 [Scutellarein] (10 µM)
0: [1] | [2] | [3] | [4] | [5] | [6] | [7] | [8] | [9] | [10]

Cc1cc(F)c(Nc2ncnc3cc(OCc4ccccc4)ccc23)cc1O (10 µM)
0: [1] | [2] | [3] | [4] | [5] | [6] | [7] | [8] | [9] | [10]

Cc1cc(Nc2ncc(Cl)c(Nc3ccccc3S(=O)(=O)C(C)C)n2)c(OC(C)C)cc1C1CCN(CC(=O)NCCNc2cccc3c2C(=O)N(C2CCC(=O)NC2=O)C3=O)CC1 (stereo not given) (10 µM)
0: [1] | [2] | [3] | [4] | [5] | [6] | [7] | [8] | [9] | [10]

Cn1cc(-c2ccc3nnc(Sc4ccc5nn(C)cc5c4)n3n2)cn1 [c-Met inhibitor 1] (10 µM)
0: [1] | [2] | [3] | [4] | [5] | [6] | [7] | [8] | [9] | [10]

Compounds above with an NH in an aromatic ring (3):
C[C@@H]1CN(Cc2cn[nH]c2-c2ccc(C#N)cc2)CCN1c1ccc(C(F)(F)F)cn1 (2.5 µM)
0: [1] | [2] | [3] | [4] | [5] | [6] | [7] | [8] | [9] | [10]

COc1ccc2c(c1)C[C@H](C(=O)Nc1ccc(-c3cn[nH]c3)cc1OCCN(C)C)CO2 [Chroman 1] (10 µM)
0: [1] | [2] | [3] | [4] | [5] | [6] | [7] | [8] | [9] | [10]

Cc1ccc(-n2c(-c3ccc(O)cc3O)n[nH]c2=O)cc1 (10 µM)
3: [4]
4: [1] | [6] | [7]
1: [8]
0: [2] | [3] | [5] | [9] | [10]

Next part.

O=C1c2cccc(O)c2C(=O)c2c(O)cccc21 [Danthron] (10 µM)
0: [1] | [2] | [3] | [4] | [5] | [6] | [7] | [8] | [9] | [10]

CN(C)CCCNc1ccn2ncc(-c3ccc4c(c3)OCO4)c2n1 (10 µM)
0: [1] | [2] | [3] | [4] | [5] | [6] | [7] | [8] | [9] | [10]

CCn1c2ccccc2c2cc(Nc3ccnc(NCCCN4CCOCC4)n3)ccc21 (2.5 µM)
0: [1] | [2] | [3] | [4] | [5] | [6] | [7] | [8] | [9] | [10]

Cc1cc(=O)[nH]c(=S)[nH]1 [Methylthiouracil] (10 µM)
0: [1] | [2] | [3] | [4] | [5] | [6] | [7] | [8] | [9] | [10]

CN1CCC(c2ccccc2CC(C)(C)Nc2nc(N3CCOCC3)nc(-n3c(S(C)(=O)=O)nc4ccccc43)n2)CC1 (10 µM)
0: [1] | [2] | [3] | [4] | [5] | [6] | [7] | [8] | [9] | [10]
